PubChem BioAssay AID743121 | NCATS – 2013

Assay: 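Genes whose silencing strengthens cell killing by camptothecin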 (primary screen)
Cells: MDA-MB-231 cells, a human breast cancer line
Reagents: single siRNA against human genes, 20 nM siRNA (0.8 pmol per well)
Time to read-out: 120 h (drug added 48 h after transfection, read 72 h later)
Challenge: camptothecin 20 nM (about EC30) for 72 h; vehicle 0.1% DMSO in parallel plates
Measurement: 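CellTiter-Glo ATP signal, scaled to control siRNA as percent viability; sensitisation given as log2 of untreated divided by camptothecin-treated viability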
Direction: log2 vehicle/camptothecin viability: higher = stronger sensitisation to camptothecin; viability with camptothecin: higher = more viable cells
Active means: 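Active genes have an RSA gene-level p-value below 0.001, computed from the ratios of their separate siRNAs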
In all, the deposit lists about 26,000 reagents; this is a random part of them. In the full data, 167 (0.63%) were called active. 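Calls are per gene from RSA p-values that are not deposited; an individual active-marked siRNA can sensitise only weakly.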 Entries without a mark were called inactive. Reagents against one gene are numbered here. Further read-outs or replicates are left out here. No sequences are given here.

no.	gene symbol	reagent	log2 vehicle/camptothecin viability	viability with camptothecin (% of control)
1	C3	1	-0.392	98.8
2	C3	2	-0.499	66.3
3	C3	3	-0.311	92.2
4	TMEM219	1	-0.158	19.6
5	TMEM219	2	0.0503	54.3
6	TMEM219	3	-0.276	73.2
7	TMEM219	4	-0.225	57.3
8	BRCA1	1	0.321 (active)	88.6
9	BRCA1	2	0.0924 (active)	83.9
10	BRCA1	3	0.358 (active)	57
11	BRCA1	4	-0.223 (active)	46.7
12	BRCA1	5	0.0756 (active)	32.5
13	BRCA1	6	0.639 (active)	34.9
14	BRCA1	7	0.468 (active)	37.8
15	BRCA1	8	0.466 (active)	63
16	MT1E	1	0.381	76.6
17	MT1E	2	-0.119	83.6
18	MT1E	3	0.052	78.8
19	CD200R1	1	-0.209	64.4
20	CD200R1	2	-0.535	66
21	CD200R1	3	0.447	64.1
22	CD200R1	4	-0.533	85.2
23	AQP6	1	-0.219	69.6
24	AQP6	2	-0.303	51.2
25	AQP6	3	0.171	12.6
26	AQP6	4	-0.125	74.8
27	FZR1	1	-0.711	83
28	FZR1	2	0.547	17.5
29	FZR1	3	0.133	22.9
30	FZR1	4	-0.00934	98.7
31	MPO	1	-0.00666	90
32	MPO	2	-0.662	43.6
33	MPO	3	0.256	52.9
34	MPO	4	-0.0172	91.7

Records listed above with an active call:
gene symbol	reagent	log2 vehicle/camptothecin viability	viability with camptothecin (% of control)
BRCA1	1	0.321 (active)	88.6
BRCA1	2	0.0924 (active)	83.9
BRCA1	3	0.358 (active)	57
BRCA1	4	-0.223 (active)	46.7
BRCA1	5	0.0756 (active)	32.5
BRCA1	6	0.639 (active)	34.9
BRCA1	7	0.468 (active)	37.8
BRCA1	8	0.466 (active)	63

Additional entries:
no.	gene symbol	reagent	log2 vehicle/camptothecin viability	viability with camptothecin (% of control)
35	RAMP1	1	-0.586	47.2
36	RAMP1	2	0.13	82.4
37	RAMP1	3	0.15	53.8
38	RAMP1	4	-0.0564	55.7
39	SP140L	1	0.0406	17.5
40	SP140L	2	-0.326	80.6
41	SP140L	3	-0.215	29.3
42	SERPINA11	1	-0.0641	102
43	SERPINA11	2	-0.125	102
44	SERPINA11	3	-0.433	90.7
45	SERPINA11	4	0.115	34.3
46	ADORA2B	1	0.261	78
47	ADORA2B	2	0.0136	33.9
48	ADORA2B	3	0.171	62.2
49	ADORA2B	4	0.0363	82.3
50	AS3MT	1	-0.0943	76.5
51	AS3MT	2	0.0981	60.4
52	AS3MT	3	-0.315	76.8
53	AS3MT	4	0.107	71.9
54	AIMP1	1	-0.146	117
55	AIMP1	2	-0.151	101
56	AIMP1	3	-0.39	70.3
57	AIMP1	4	0.313	70.9
58	ARSH	1	-0.187	58.4
59	ARSH	2	-0.273	93.7
60	ARSH	3	-0.09	95.9
61	KIF5A	1	-0.123	107
62	KIF5A	2	0.289	67.7
63	KIF5A	3	-0.281	75.6
64	KIF5A	4	-0.00727	98.9
65	ASH1L	1	-0.0475	120
66	ASH1L	2	0.128	43.2
67	ASH1L	3	-0.183	74.7
68	ASH1L	4	0.398	38.3
